Source: patent US20250283871A1, “COMPOSITIONS AND METHODS FOR MODULATING THE INTERACTION BETWEEN SS18-SSX FUSION ONCOPROTEIN AND NUCLEOSOMES” (Dana-Farber Cancer Institute, Inc., priority 2020, published 2025)

System: BAF complex subunits and histone proteins
Assay: Mass spectrometry proteomics of purified HA-SS18 WT and HA-SS18-SSX1 complexes (Tables 5A-5E)
Parameters: species or system human
Details: HEK-293T
[1] = HA-SS18SSX1_NE_peptides (Table 5B), HA-SS18-SSX1 BAF complex purification from soluble nuclear extract
[2] = HA-SS18WT_NE_peptides: proteins co-purified with HA-SS18 WT from nuclear extract (NE)
[3] = HA-SS18SSX1 purification, NE (soluble nuclear extract) fraction, peptides per identified protein
[4] = HA-SS18WT_NE_peptides: HA-SS18 WT complexes purified from nuclear extract (NE), label = protein identified (Gene Symbol)

B1: KSR2 (protein, UniProt Q6VAB6 1-950, looked up)
Kinase suppressor of Ras 2: MDEENMTKSEEQQPLSLQKALQQCELVQNMIDLSISNLEGLRTKCATSNDLTQKEIRTLESKLVKYFSRQLSCKKKVALQERNAELDGFPQLRHWFRIVDVRKEVLEEISPGQLSLEDLLEMTDEQVCETVEKYGANREECARLNASLSCLRNVHMSGGNLSKQDWTIQWPTTETGKENNPVCPPEPTPWIRTHLSQSPRVPSKCVQHYCHTSPTPGAPVYTHVDRLTVDAYPGLCPPPPLESGHRSLPPSPRQRHAVRTPPRTPNIVTTVTPPGTPPMRKKNKLKPPGTPPPSSRKLIHLIPGFTALHRSKSHEFQLGHRVDEAHTPKAKKKSKPLNLKIHSSVGSCENIPSQQRSPLLSERSLRSFFVGHAPFLPSTPPVHTEANFSANTLSVPRWSPQIPRRDLGNSIKHRFSTKYWMSQTCTVCGKGMLFGLKCKNCKLKCHNKCTKEAPPCHLLIIHRGDPARLVRTESVPCDINNPLRKPPRYSDLHISQTLPKTNKINKDHIPVPYQPDSSSNPSSTTSSTPSSPAPPLPPSATPPSPLHPSPQCTRQQKNFNLPASHYYKYKQQFIFPDVVPVPETPTRAPQVILHPVTSNPILEGNPLLQIEVEPTSENEEVHDEAEESEDDFEEMNLSLLSARSFPRKASQTSIFLQEWDIPFEQLEIGELIGKGRFGQVYHGRWHGEVAIRLIDIERDNEDQLKAFKREVMAYRQTRHENVVLFMGACMSPPHLAIITSLCKGRTLYSVVRDAKIVLDVNKTRQIAQEIVKGMGYLHAKGILHKDLKSKNVFYDNGKVVITDFGLFSISGVLQAGRREDKLRIQNGWLCHLAPEIIRQLSPDTEEDKLPFSKHSDVFALGTIWYELHAREWPFKTQPAEAIIWQMGTGMKPNLSQIGMGKEISDILLFCWAFEQEERPTFTKLMDMLEKLPKRNRRLSHPGHFWKSAEL
[1]
  Total (peptides): 1
  Unique (peptides): 1
[2]
  Total (peptides): 1
  Unique (peptides): 1

B2: ALG8 (protein, UniProt Q9BVK2 1-526, looked up)
Dolichyl pyrophosphate …: MAALTIATGTGNWFSALALGVTLLKCLLIPTYHSTDFEVHRNWLAITHSLPISQWYYEATSEWTLDYPPFFAWFEYILSHVAKYFDQEMLNVHNLNYSSSRTLLFQRFSVIFMDVLFVYAVRECCKCIDGKKVGKELTEKPKFILSVLLLWNFGLLIVDHIHFQYNGFLFGLMLLSIARLFQKRHMEGAFLFAVLLHFKHIYLYVAPAYGVYLLRSYCFTANKPDGSIRWKSFSFVRVISLGLVVFLVSALSLGPFLALNQLPQVFSRLFPFKRGLCHAYWAPNFWALYNALDKVLSVIGLKLKFLDPNNIPKASMTSGLVQQFQHTVLPSVTPLATLICTLIAILPSIFCLWFKPQGPRGFLRCLTLCALSSFMFGWHVHEKAILLAILPMSLLSVGKAGDASIFLILTTTGHYSLFPLLFTAPELPIKILLMLLFTIYSISSLKTLFRKEKPLFNWMETFYLLGLGPLEVCCEFVFPFTSWKVKYPFIPLLLTSVYCAVGITYAWFKLYVSVLIDSAIGKTKKQ
[1]
  Total (peptides): 1
  Unique (peptides): 1

B3: HMGCL (protein, UniProt P35914 28-325, looked up)
Hydroxymethylglutaryl-CoA …: TLPKRVKIVEVGPRDGLQNEKNIVSTPVKIKLIDMLSEAGLSVIETTSFVSPKWVPQMGDHTEVLKGIQKFPGINYPVLTPNLKGFEAAVAAGAKEVVIFGAASELFTKKNINCSIEESFQRFDAILKAAQSANISVRGYVSCALGCPYEGKISPAKVAEVTKKFYSMGCYEISLGDTIGVGTPGIMKDMLSAVMQEVPLAALAVHCHDTYGQALANTLMALQMGVSVVDSSVAGLGGCPYAQGASGNLATEDLVYMLEGLGIHTGVNLQKLLEAGNFICQALNRKTSSKVAQATCKL
[1]
  Total (peptides): 1
  Unique (peptides): 1

B4: SURF1 (protein, UniProt Q15526 1-300, looked up)
Surfeit locus protein 1: MAAVAALQLGLRAAGLGRAPASAAWRSVLRVSPRPGVAWRPSRCGSSAAEASATKAEDDSFLQWVLLLIPVTAFGLGTWQVQRRKWKLNLIAELESRVLAEPVPLPADPMELKNLEYRPVKVRGCFDHSKELYMMPRTMVDPVREAREGGLISSSTQSGAYVVTPFHCTDLGVTILVNRGFVPRKKVNPETRQKGQIEGEVDLIGMVRLTETRQPFVPENNPERNHWHYRDLEAMARITGAEPIFIDANFQSTVPGGPIGGQTRVTLRNEHLQYIVTWYGLSAATSYLWFKKFLRGTPGV
[1]
  Total (peptides): 1
  Unique (peptides): 1

B5: BRPF3 (protein, UniProt Q9ULD4 1-1205, looked up)
Bromodomain and PHD …: MRKPRRKSRQNAEGRRSPSPYSLKCSPTRETLTYAQAQRIVEVDIDGRLHRISIYDPLKIITEDELTAQDITECNSNKENSEQPQFPGKSKKPSSKGKKKESCSKHASGTSFHLPQPSFRMVDSGIQPEAPPLPAAYYRYIEKPPEDLDAEVEYDMDEEDLAWLDMVNEKRRVDGHSLVSADTFELLVDRLEKESYLESRSSGAQQSLIDEDAFCCVCLDDECHNSNVILFCDICNLAVHQECYGVPYIPEGQWLCRCCLQSPSRPVDCILCPNKGGAFKQTSDGHWAHVVCAIWIPEVCFANTVFLEPIEGIDNIPPARWKLTCYICKQKGLGAAIQCHKVNCYTAFHVTCAQRAGLFMKIEPMRETSLNGTIFTVRKTAYCEAHSPPGAATARRKGDSPRSISETGDEEGLKEGDGEEEEEEEVEEEEQEAQGGVSGSLKGVPKKSKMSLKQKIKKEPEEAGQDTPSTLPMLAVPQIPSYRLNKICSGLSFQRKNQFMQRLHNYWLLKRQARNGVPLIRRLHSHLQSQRNAEQREQDEKTSAVKEELKYWQKLRHDLERARLLIELIRKREKLKREQVKVQQAAMELELMPFNVLLRTTLDLLQEKDPAHIFAEPVNLSEVPDYLEFISKPMDFSTMRRKLESHLYRTLEEFEEDFNLIVTNCMKYNAKDTIFHRAAVRLRDLGGAILRHARRQAENIGYDPERGTHLPESPKLEDFYRFSWEDVDNILIPENRAHLSPEVQLKELLEKLDLVSAMRSSGARTRRVRLLRREINALRQKLAQPPPPQPPSLNKTVSNGELPAGPQGDAAVLEQALQEEPEDDGDRDDSKLPPPPTLEPTGPAPSLSEQESPPEPPTLKPINDSKPPSRFLKPRKVEEDELLEKSPLQLGNEPLQRLLSDNGINRLSLMAPDTPAGTPLSGVGRRTSVLFKKAKNGVKLQRSPDRVLENGEDHGVAGSPASPASIEEERHSRKRPRSRSCSESEGERSPQQEEETGMTNGFGKHTESGSDSECSLGLSGGLAFEACSGLTPPKRSRGKPALSRVPFLEGVNGDSDYNGSGRSLLLPFEDRGDLEPLELVWAKCRGYPSYPALIIDPKMPREGLLHNGVPIPVPPLDVLKLGEQKQAEAGEKLFLVLFFDNKRTWQWLPRDKVLPLGVEDTVDKLKMLEGRKTSIRKSVQVAYDRAMIHLSRVRGPHSFVTSSYL
[1]
  Total (peptides): 1
  Unique (peptides): 1

B6: SLC25A12 (protein, UniProt O75746 2-678, looked up)
Electrogenic …: AVKVQTTKRGDPHELRNIFLQYASTEVDGERYMTPEDFVQRYLGLYNDPNSNPKIVQLLAGVADQTKDGLISYQEFLAFESVLCAPDSMFIVAFQLFDKSGNGEVTFENVKEIFGQTIIHHHIPFNWDCEFIRLHFGHNRKKHLNYTEFTQFLQELQLEHARQAFALKDKSKSGMISGLDFSDIMVTIRSHMLTPFVEENLVSAAGGSISHQVSFSYFNAFNSLLNNMELVRKIYSTLAGTRKDVEVTKEEFAQSAIRYGQVTPLEIDILYQLADLYNASGRLTLADIERIAPLAEGALPYNLAELQRQQSPGLGRPIWLQIAESAYRFTLGSVAGAVGATAVYPIDLVKTRMQNQRGSGSVVGELMYKNSFDCFKKVLRYEGFFGLYRGLIPQLIGVAPEKAIKLTVNDFVRDKFTRRDGSVPLPAEVLAGGCAGGSQVIFTNPLEIVKIRLQVAGEITTGPRVSALNVLRDLGIFGLYKGAKACFLRDIPFSAIYFPVYAHCKLLLADENGHVGGLNLLAAGAMAGVPAASLVTPADVIKTRLQVAARAGQTTYSGVIDCFRKILREEGPSAFWKGTAARVFRSSPQFGVTLVTYELLQRWFYIDFGGLKPAGSEPTPKSRIADLPPANPDHIGGYRLATATFAGIENKFGLYLPKFKSPSVAVVQPKAAVAATQ
[3]
  Total (total peptides): 12
  Unique (unique peptides): 10
[4]
  Total (peptides): 11
  Unique (peptides): 11
